# Measurements as given in PubChem BioAssay AID540276 (National Center for Advancing Translational Sciences (NCATS), 2011).
# Values joined by “and” are separate entries in the source; they are usually repeats but may differ in a detail not shown here. Equal entries are not always repeated. About 5,400 (1.8%) of roughly 300,000 compounds were called active. The inconclusive results got no clear call from the source; some entries with a clear call stand among them for comparison. The call rests on the fitted dose curve; tested in HEK293 cells. A potency beside an inconclusive call is a rough fit, not a confirmed value.
# Assay: qHTS for inhibitors of binding or entry into cells for Marburg Virus
# Settings: Marburg virus pseudotyped entry inhibition, cell reporter; activity change, negative = inhibition: at 37.8 µM (top of the series) unless noted
# On the % scale 0 is the no-effect control and ±100 the full control effect; potency means the concentration at half of the fitted maximal effect.
Compound,Potency,"activity change, negative = inhibition"
CC(C)NCCOCCOc1ccc(Cl)cc1Br,"inconclusive: 22.4 µM [inhibitor, single point]",–
CC(=O)/C(=N\Nc1ccc(Cl)cc1)Sc1nnc(-c2ccccc2)n1-c1ccccc1,"inconclusive: 11.2 µM [inhibitor, partial curve, poor fit]",–
COc1ccc(C(CNc2ncnc3sc(C)c(C)c23)N(C)C)cc1 (centres undefined),"inconclusive: 10 µM [inhibitor, partial curve, poor fit]",–
CNc1nc(-c2ccccc2)nc(-c2ccc(OC)cc2)c1C#N,"inconclusive: 20 µM [activator, single point]",–
COc1ccc(/C=C/C(=O)Nc2cccc(C(C)=O)c2)cc1,"inconclusive: 23.1 µM [inhibitor, single point]",–
O=C(CSc1nnc(NC(=O)c2ccc(F)cc2F)s1)NC1CCCC1,–,inactive: -2.82% [at 46.1 µM]
Cc1cccc(NCc2ccc(O)c3ncccc23)c1,"inconclusive: 7.08 µM [inhibitor, partial curve]",–
CNCC[C@H](Oc1ccccc1OC)c1ccccc1,active: 18.3 µM,–
COc1ccc(CC(=O)NNC(=O)c2ccncc2)cc1,"inconclusive: 6.31 µM [inhibitor, single point]",–
COc1cccc(CN(C)CC(=O)Nc2ccccc2C(=O)Nc2ccccc2)c1OC,"inconclusive: 28.2 µM [inhibitor, single point]",–
CCc1ccc2[nH]c(=O)c(C(c3nnnn3CCOC)N3CCN(c4ccc(F)cc4)CC3)cc2c1 (centres undefined),"inactive and inconclusive: 22.4 µM [inhibitor, partial curve, poor fit]",–
Cc1cc(SCC(=O)N/N=C/c2ccc(O)c(O)c2O)c(C)cc1Br,–,inactive: 1.2%
C[C@H]1C=CCC(=O)N[C@@H](c2ccccc2)[C@@H](C)C=CCC(=O)N[C@@H]1c1ccccc1,"inconclusive: 0.0075 µM [inhibitor, full curve, poor fit]",–
CC(C)c1ccc(OCC(=O)Nc2ccc(S(=O)(=O)Nc3ccccn3)cc2)cc1,–,inactive: -18.2% [at 46.1 µM]
COc1ccccc1NC(=O)c1ccccc1NS(=O)(=O)N1CCCC1,–,inactive: 1.73%
CCCCc1nnc(SCCSc2nnc(CCCC)n2N)n1N,–,inactive: 3.39%
OCCCN1c2ccccc2Nc2nnc(-c3ccccc3)cc21,"inconclusive: 20 µM [inhibitor, partial curve, poor fit]",–
Cc1ccccc1NC(=O)c1c(C)oc2ccc(O)c(CN3CCOCC3)c12,"inconclusive: 11.2 µM [inhibitor, partial curve, poor fit]",–
CCCCn1c(N)c(N(CC(C)C)C(=O)c2ccc(-n3c(C)ccc3C)cc2)c(=O)[nH]c1=O,"inconclusive: 35.5 µM [inhibitor, single point]",–

# Ordered by SMILES length (ascending): part of the list above.
Compound,Potency,"activity change, negative = inhibition"
CNCC[C@H](Oc1ccccc1OC)c1ccccc1,active: 18.3 µM,–
CCCCc1nnc(SCCSc2nnc(CCCC)n2N)n1N,–,inactive: 3.39%
CNc1nc(-c2ccccc2)nc(-c2ccc(OC)cc2)c1C#N,"inconclusive: 20 µM [activator, single point]",–
C[C@H]1C=CCC(=O)N[C@@H](c2ccccc2)[C@@H](C)C=CCC(=O)N[C@@H]1c1ccccc1,"inconclusive: 0.0075 µM [inhibitor, full curve, poor fit]",–
